Laboratory results as given in PubChem BioAssay AID540256 (National Center for Advancing Translational Sciences (NCATS), 2011).
In all, about 300,000 compounds went through this assay and about 3,700 (1.2%) were called active. Inconclusive means that the source gave no clear call. Such entries were picked first, then a sample of the others. Calls come from the whole dose curve; tested in HEK293 cells. Where the call is inconclusive, the potency comes from a doubtful curve fit.

assay: qHTS for Inhibitors of binding or entry into cells for Lassa Virus; details: Lassa virus pseudotype entry inhibition, cell reporter; activity change, negative = inhibition: at 37.9 µM (top of the series) unless noted; note: nearly all actives have a fitted effect of over 50% in size
% is set by controls: 0 for no effect and ±100 for the full control effect; potency is the fitted concentration of half-maximal effect.

Structure (SMILES)	Potency	activity change, negative = inhibition
CC(=O)Nc1ccc(SCCCC(=O)c2ccccc2)cc1	inconclusive: 35.5 µM [inhibitor, single point]	
CCOc1cc(/C=C/C(=O)O)ccc1OCCOc1ccccc1	inconclusive: 0.631 µM [activator, single point]	
Cc1ccc(C)c(C(=O)OCC(=O)Nc2cccc(S(=O)(=O)NC3=NCCCCC3)c2)c1	inconclusive: 0.447 µM [inhibitor, full curve, poor fit]	
COc1ccc(Nc2nc3[nH]c(=O)cc(O)c3s2)cc1	inconclusive: 3.55 µM [inhibitor, partial curve, poor fit]	
CCCCNC(=S)Nc1ccc(-c2nc3ccc(C)cc3s2)cc1	inconclusive: 15.8 µM [inhibitor, single point]	
CSc1nsc2nc(=O)c(/C=C3\C(C)=Nc4ccc(C)cc43)c(N)n12	inconclusive: 3.55 µM [inhibitor, partial curve]	
O=C(NS(=O)(=O)Oc1ccccc1F)OC[C@@H]1CCCN2CCCCC12 (stereo not given in full)		inactive: 6.88% [at 46.1 µM]
COc1ccc(/C=C/C(=O)NC(=S)N2CCOCC2)cc1		inactive: 4.4% [at 46.1 µM]
O=C(NN=C1CCCC1)c1[nH]c2ccc(Cl)cc2c1-c1ccccc1	inconclusive: 25.1 µM [inhibitor, single point]	
Cc1ccc(/C(CSc2nccn2-c2ncc(C(F)(F)F)cc2Cl)=N\O)cc1	inconclusive: 20 µM [inhibitor, single point]	
NC(=O)N1CC(O)CC1C(=O)Nc1ccc(Cl)c(Cl)c1 (stereo not given)		inactive: 10.7%
Cc1ccc(NCc2nc3ccccc3n2CCOc2ccccc2)cc1	inconclusive: 2.91 µM [activator, partial curve]	
CC1(C)Cc2ccccc2C2=C(C(=O)N3CCCCCC3)C(=O)C(=O)N21		inactive: 13.8%
Clc1ccc(-c2nnc(NC3=NCCCCC3)o2)cc1	inconclusive: 1.64 µM [inhibitor, full curve, poor fit]	
Cc1cc(C)c(S(=O)(=O)NCC(c2cccs2)S(=O)(=O)c2ccccc2)c(C)c1 (stereo not given)	inconclusive: 10 µM [inhibitor, partial curve, poor fit]	
O=C(CNC(=O)c1ccccc1)N/N=C/c1ccc([N+](=O)[O-])o1		inactive: -23.7%
C/C(=N\NC(=O)Cn1nc(C)c([N+](=O)[O-])c1C)c1ccc(O)cc1	inconclusive: 0.184 µM [activator, partial curve]	
Cc1ccc(C(=O)NNC(=S)NC(=O)c2ccc(Cl)cc2)cc1	inconclusive: 29.1 µM [inhibitor, single point]	
Cc1ccc(S(=O)(=O)N(C)C)cc1NC(=O)COC(=O)/C=C/c1ccc2c(c1)OCO2		inactive: -11.9% [at 46.1 µM]
ClC(Cl)(Cl)c1nc2ccccc2n2nncc12	inconclusive: 2.82 µM [inhibitor, full curve]	
Cc1ccc(-n2nc(CO)c(C(=O)NCc3cccs3)n2)cc1	inconclusive: 3.98 µM [inhibitor, full curve, poor fit]	
O=C(Nc1ccc(Cl)cc1)N1CCN(c2ccc3nnc(-c4ccc(F)cc4)n3n2)CC1	inconclusive: 15.8 µM [inhibitor, single point]	
CS(=O)(=O)c1ccc(C(=O)N(Cc2ccccc2)c2ccccc2)cc1	inconclusive: 5.62 µM [inhibitor, partial curve]	

Entries of single compounds from above.
O=C(Nc1ccc(Cl)cc1)N1CCN(c2ccc3nnc(-c4ccc(F)cc4)n3n2)CC1 is listed as Potency: inconclusive: 15.8 µM [inhibitor, single point]
O=C(CNC(=O)c1ccccc1)N/N=C/c1ccc([N+](=O)[O-])o1 is listed as activity change, negative = inhibition: inactive: -23.7%

Next results.

Structure (SMILES)	Potency	activity change, negative = inhibition
Cc1c(O)ccc2c(CN3CCN(C/C=C/c4ccccc4)CC3)cc(=O)oc12	inconclusive: 11.2 µM [inhibitor, partial curve, poor fit]	
COc1ccccc1-c1ccc(/C=C2\C=CC(=O)O2)o1	inconclusive: 0.891 µM [inhibitor, full curve, poor fit]	
COc1cc2c(c(OC)c1OC)-c1ccc(OC)c(=O)cc1[C@@H](NC(C)=O)CC2	inconclusive: 0.073 µM [inhibitor, full curve, poor fit]	
COCCNc1cc(-c2ccccc2)nc2cc(-c3cccc(F)c3)nn12		inactive: -7.91% [at 46.1 µM]
Cc1cc(O)c(C=Nc2ccc(Cl)cn2)c(=O)o1		inactive: 10.5%
CS(=O)(=O)N1CCN(c2ccc(NC(=O)c3ccccc3)cc2)CC1		inactive: -5.03%
COc1ccc(NCC(=O)N/N=C/c2ccc3c(c2)OCCO3)cc1	inconclusive: 5.62 µM [inhibitor, partial curve]	
CN(C)C(CNC(C(=O)Nc1ccc(F)cc1)c1ccccc1)c1ccccc1 (stereo not given)	inconclusive: 22.4 µM [inhibitor, single point]	
CC(C)(C)C(=O)NC1(C(F)(F)F)C(=O)Nc2c1c(=O)[nH]c(=O)n2Cc1ccco1 (stereo not given)	inconclusive: 32.6 µM [activator, single point]	
O=C(Cc1ccc(Br)cc1)N1CCCC1		inactive: 3.57%
CCN(CC)CCOC(=O)c1ccc(NC(=O)c2cn(-c3ccccc3)nc2-c2cccs2)cc1	inconclusive: 35.5 µM [inhibitor, single point]	
COc1cc(-c2nc3c4ccccc4nc(=S)n3[nH]2)cc(OC)c1OC	inconclusive: 5.62 µM [inhibitor, single point]	
COc1ccc(S(=O)(=O)N2CCC(C(=O)Nc3cc(Cl)ccc3N3CCOCC3)CC2)cc1OC		inactive: -6.11%
Cc1ccc(-c2cc(C(F)F)n3ncc(C(=O)N4CCCc5ccccc54)c3n2)cc1		inactive: 2.48%
Cc1ccc(-n2ncc(C(=O)NCCc3ccsc3)c2C2CCN(C(=O)OC(C)(C)C)CC2)cc1C	inconclusive: 1.78 µM [inhibitor, full curve, poor fit]	
Cc1c(Cl)c([N+](=O)[O-])nn1CCCC(=O)Nc1cccc(Cl)c1Cl		inactive: -5.87%
NC(=O)c1ccsc1NC(=O)COC(=O)/C=C/c1ccccc1[N+](=O)[O-]		inactive: 12.1%
O=C(CN(C(=O)Cn1nnc(-c2ccccc2F)n1)c1cccc2c1CCCC2)NCc1ccccc1		inactive: -11.3%
CC(=O)c1c(C)[nH]c(C(=O)OCC(=O)N2CC(C)OC(C)C2)c1C (stereo not given)		inactive: -13%
Cc1ccc(NC(=O)N2CCCc3ccccc32)cc1		inactive: 29.5%
N#Cc1ccccc1CSc1nc(N)cc(N)n1		inactive: 12.8%
CN(CC(=O)NC(=O)NCc1ccccc1)Cc1ccc(Cl)cc1	inconclusive: 7.08 µM [inhibitor, partial curve]	
